Laboratory results published in publication PMC4340420.
No constants are given. Whether binding was seen depends on the method and setting. Some entries that bind do so weakly or less than the wild type.

Chains of the proteins cited; added tags and fusions are not shown. Lines headed by an entry give the natural chain unless they say otherwise; changes in a name come on top. A line that says so, or that is headed by a name, gives the form on record, which may keep a tag or linker.
hCDK12 D877N/K756A (kinase dead double mutant, His-tagged) (Q9NYV4, form named): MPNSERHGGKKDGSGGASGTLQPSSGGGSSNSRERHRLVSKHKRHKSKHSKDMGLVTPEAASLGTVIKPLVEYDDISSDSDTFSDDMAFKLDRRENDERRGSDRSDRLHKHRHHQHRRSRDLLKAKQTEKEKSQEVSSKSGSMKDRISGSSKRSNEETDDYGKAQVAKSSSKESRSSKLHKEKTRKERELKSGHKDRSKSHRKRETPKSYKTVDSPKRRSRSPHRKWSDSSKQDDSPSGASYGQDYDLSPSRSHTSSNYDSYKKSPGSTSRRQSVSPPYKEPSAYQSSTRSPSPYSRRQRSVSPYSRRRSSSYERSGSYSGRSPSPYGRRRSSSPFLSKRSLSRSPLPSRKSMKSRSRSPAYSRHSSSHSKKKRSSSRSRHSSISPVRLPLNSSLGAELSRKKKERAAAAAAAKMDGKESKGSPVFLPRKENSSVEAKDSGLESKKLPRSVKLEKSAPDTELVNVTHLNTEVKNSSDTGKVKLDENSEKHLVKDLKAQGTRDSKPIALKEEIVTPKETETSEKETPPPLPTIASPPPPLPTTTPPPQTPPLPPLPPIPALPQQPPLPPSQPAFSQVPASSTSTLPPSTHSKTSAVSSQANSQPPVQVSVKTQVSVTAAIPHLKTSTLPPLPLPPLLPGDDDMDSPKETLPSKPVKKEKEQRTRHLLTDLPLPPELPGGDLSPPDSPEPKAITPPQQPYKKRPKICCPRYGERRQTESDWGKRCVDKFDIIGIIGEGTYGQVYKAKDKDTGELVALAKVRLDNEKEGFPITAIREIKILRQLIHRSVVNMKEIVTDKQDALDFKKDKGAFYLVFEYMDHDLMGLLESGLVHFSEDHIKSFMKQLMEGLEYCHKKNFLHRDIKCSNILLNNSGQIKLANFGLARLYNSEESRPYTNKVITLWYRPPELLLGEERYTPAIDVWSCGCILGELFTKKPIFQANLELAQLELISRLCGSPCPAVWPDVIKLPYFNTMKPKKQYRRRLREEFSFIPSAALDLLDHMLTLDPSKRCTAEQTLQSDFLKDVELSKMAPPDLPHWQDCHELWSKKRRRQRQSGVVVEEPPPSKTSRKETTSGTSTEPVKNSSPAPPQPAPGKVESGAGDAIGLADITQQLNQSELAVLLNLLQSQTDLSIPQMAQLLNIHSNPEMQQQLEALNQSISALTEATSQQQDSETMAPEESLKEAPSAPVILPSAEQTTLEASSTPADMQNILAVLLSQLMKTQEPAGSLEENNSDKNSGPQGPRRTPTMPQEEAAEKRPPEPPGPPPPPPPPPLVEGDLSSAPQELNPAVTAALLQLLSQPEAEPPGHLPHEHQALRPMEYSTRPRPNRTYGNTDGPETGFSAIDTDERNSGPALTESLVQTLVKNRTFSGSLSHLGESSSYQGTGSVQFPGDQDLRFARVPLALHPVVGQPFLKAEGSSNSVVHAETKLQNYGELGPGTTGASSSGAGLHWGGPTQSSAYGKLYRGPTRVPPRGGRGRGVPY
hCDK12 D877N (kinase dead single mutant, His-tagged) (Q9NYV4, form named): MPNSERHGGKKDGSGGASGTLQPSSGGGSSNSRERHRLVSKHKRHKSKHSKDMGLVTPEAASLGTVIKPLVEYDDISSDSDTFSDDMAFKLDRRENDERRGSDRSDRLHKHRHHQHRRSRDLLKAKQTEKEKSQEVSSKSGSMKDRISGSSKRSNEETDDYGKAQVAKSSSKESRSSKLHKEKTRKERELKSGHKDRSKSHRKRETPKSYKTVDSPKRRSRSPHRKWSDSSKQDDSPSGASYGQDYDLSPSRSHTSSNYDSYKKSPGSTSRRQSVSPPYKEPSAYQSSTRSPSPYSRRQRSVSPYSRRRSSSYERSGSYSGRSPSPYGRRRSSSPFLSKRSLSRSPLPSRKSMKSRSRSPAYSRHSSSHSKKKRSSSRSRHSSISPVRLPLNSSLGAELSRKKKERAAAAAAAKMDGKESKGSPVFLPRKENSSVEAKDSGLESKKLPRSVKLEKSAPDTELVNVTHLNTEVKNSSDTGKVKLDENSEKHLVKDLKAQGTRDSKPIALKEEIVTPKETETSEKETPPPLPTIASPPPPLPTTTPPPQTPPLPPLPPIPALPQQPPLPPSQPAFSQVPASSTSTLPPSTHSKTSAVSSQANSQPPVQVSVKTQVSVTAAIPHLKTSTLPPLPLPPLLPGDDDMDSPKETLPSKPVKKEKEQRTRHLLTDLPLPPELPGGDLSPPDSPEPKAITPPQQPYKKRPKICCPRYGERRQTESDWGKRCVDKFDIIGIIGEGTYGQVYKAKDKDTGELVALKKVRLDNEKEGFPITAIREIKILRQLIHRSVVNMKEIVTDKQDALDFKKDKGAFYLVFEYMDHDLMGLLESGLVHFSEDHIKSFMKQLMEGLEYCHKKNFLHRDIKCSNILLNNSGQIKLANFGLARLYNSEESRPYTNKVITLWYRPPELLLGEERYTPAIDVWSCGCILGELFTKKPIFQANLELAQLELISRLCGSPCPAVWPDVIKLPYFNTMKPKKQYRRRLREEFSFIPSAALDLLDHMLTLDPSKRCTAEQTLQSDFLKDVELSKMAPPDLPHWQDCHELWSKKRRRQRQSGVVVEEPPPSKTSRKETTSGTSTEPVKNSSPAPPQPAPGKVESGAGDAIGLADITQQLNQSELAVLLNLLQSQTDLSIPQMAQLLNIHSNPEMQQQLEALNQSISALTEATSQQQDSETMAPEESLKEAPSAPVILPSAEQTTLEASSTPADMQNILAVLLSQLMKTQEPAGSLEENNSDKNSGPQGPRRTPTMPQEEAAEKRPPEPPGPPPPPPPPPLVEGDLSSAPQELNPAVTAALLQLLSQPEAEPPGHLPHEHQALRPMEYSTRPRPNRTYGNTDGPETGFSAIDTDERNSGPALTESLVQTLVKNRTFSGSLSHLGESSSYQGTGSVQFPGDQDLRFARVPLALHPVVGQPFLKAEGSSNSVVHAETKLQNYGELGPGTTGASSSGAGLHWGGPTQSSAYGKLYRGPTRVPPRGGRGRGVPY
hCDK12 F813G (analog-sensitive mutant, His-tagged) (Q9NYV4, form named): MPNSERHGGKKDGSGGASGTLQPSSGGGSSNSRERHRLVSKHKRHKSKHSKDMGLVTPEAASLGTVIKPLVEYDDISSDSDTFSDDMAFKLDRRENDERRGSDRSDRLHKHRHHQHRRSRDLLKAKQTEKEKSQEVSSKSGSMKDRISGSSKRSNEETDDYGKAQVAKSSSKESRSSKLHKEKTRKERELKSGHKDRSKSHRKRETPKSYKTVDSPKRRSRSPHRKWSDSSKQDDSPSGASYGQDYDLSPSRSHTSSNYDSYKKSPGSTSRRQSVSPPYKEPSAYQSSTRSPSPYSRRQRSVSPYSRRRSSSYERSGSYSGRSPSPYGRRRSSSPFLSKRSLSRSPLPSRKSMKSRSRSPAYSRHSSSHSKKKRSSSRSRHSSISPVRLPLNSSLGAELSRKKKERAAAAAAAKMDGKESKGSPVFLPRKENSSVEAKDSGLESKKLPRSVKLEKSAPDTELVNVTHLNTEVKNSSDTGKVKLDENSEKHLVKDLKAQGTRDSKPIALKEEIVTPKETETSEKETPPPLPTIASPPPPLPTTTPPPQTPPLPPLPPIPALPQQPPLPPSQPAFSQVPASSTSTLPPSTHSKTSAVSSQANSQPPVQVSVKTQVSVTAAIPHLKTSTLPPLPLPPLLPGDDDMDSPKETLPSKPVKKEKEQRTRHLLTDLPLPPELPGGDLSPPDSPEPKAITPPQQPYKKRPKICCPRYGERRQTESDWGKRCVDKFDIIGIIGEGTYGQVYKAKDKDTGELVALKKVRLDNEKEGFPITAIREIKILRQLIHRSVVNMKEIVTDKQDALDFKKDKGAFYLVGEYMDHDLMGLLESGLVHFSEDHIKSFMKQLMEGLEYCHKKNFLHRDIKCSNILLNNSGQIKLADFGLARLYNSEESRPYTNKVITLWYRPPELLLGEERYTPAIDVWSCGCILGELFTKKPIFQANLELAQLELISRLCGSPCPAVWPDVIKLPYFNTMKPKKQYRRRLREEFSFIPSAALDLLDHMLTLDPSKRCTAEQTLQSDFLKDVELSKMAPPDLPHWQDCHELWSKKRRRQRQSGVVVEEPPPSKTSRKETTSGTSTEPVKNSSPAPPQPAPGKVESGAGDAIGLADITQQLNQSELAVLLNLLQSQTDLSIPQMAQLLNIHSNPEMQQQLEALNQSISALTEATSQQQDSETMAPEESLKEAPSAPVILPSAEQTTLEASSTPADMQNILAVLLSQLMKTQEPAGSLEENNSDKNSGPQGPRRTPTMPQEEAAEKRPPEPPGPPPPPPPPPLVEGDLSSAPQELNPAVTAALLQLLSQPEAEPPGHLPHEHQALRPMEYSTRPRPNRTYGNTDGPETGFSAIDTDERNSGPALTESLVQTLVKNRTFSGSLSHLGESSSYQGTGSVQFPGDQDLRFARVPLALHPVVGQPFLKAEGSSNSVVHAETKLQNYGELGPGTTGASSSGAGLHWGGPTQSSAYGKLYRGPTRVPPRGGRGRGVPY
UniProt O75909: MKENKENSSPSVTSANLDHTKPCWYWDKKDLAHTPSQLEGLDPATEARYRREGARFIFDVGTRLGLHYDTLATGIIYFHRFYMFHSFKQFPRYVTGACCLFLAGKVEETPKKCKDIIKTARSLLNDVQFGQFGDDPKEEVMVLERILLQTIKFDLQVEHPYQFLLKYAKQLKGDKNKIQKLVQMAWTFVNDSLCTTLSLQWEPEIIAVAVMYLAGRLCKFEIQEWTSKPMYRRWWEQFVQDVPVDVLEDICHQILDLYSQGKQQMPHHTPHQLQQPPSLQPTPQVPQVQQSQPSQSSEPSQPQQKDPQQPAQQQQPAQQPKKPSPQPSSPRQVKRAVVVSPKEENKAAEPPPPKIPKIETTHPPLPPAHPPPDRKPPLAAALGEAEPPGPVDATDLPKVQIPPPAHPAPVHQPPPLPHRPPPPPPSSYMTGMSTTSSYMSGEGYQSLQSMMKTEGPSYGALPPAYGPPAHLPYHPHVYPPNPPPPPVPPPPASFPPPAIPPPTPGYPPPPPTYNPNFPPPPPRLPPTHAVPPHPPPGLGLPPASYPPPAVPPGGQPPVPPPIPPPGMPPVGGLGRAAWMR

Assays:
Assay in all cases: SEC; second step of the two-step purification: pooled Ni-Sepharose eluate of the co-expressed complex on Superdex 200 10/30 HR, 25 mM HEPES pH 7.6, 8% glycerol, 300 mM NaCl; fractions on Coomassie gel; purified complexes used in kinase assays; both purified
[1] = target: hCDK12 D877N/K756A (kinase dead double mutant, His-tagged) (human) (UniProt Q9NYV4)
[2] = target: hCDK12 D877N (kinase dead single mutant, His-tagged) (human) (UniProt Q9NYV4)
[3] = target: hCDK12 F813G (analog-sensitive mutant, His-tagged) (human) (UniProt Q9NYV4)

Measured: binding

full-length human CyclinK (580 AA) (from UniProt O75909 1-580)
binds: [1] | [2] | [3]
